In paper PMC10445734 one finds binding data, which are given here for ten molecules.

Results are given in words; binding and its absence hold for the method and conditions named. Binding seen in cells or lysates may run through a third protein. A yes stands for co-enrichment or nearness to the bait. Other partners may have been found.

This experiment concerns the target N-terminally HA-tagged Fra (Frazzled), pan-neurally overexpressed (Drosophila). As to the kind of experiment: affinity purification with mass spectrometry; lysates of Drosophila embryos pan-neurally (elav-Gal4) overexpressing N-terminally HA-tagged Fra; anti-HA immunoprecipitation overnight at 4°C, protein A and G agarose beads, TBSV with 1% NP40; eluted with glycine pH 2.0; label-free LC-MS/MS; control embryos with elav-Gal4 alone.

B1: CSN3 (protein, UniProt Q8SYG2 1-445)
chain: MGSALENYVNQVRTLSASGSYRELAEELPESLSLLARNWSILDNVLETLDMQQHSLGVLYVLLAKLHSASTANPEPVQLIQLMRDFVQRNNNEQLRYAVCAFYETCHLFTEFVVQKNLSILGIRIISRAIDQIRQLETQLTPIHADLCLLSLKAKNFSVVLPYLDADITDISTVAAECKTQQQQQSQHADANNDAKYFLLYFYYGGMIYTAVKNYERALYFFEVCITTPAMAMSHIMLEAYKKFLMVSLIVEGKIAYIPKNTQVIGRFMKPMANHYHDLVNVYANSSSEELRIIILKYSEAFTRDNNMGLAKQVATSLYKRNIQRLTKTFLTLSLSDVASRVQLASAVEAERYILNMIKSGEIYASINQKDGMVLFKDDPEKYNSPEMFLNVQNNITHVLDQVRQINKMEEEIILNPMYVKKALGSQDDDLTSQHPKTFSGDPTD
With B1, the binding entry is “binds”.

B2: Prosbeta7 (protein, UniProt Q9VNA5 1-268)
chain: MLNNYNSLAQPMWQNGPAPGEFYNFTGGQTPVQQLPRELTTMGPYGTKHSTASSTTGTSVLGIRYDSGVMLAADTLVSYGSMARYQNIERVFKVNKNILLGGSGDFADIQSIKRNIDQKMIEDQCCDDNIEMKPKSLASWMTRVLYNRRSRMNPLYIDVVVGGVDNEGTPYLANVDLRGRSYEDYVVATGFARHLAVPLVREKKPKDRDFTAVEASELIRTCMEVLYYRDTRNISQYTVGVCSVNGCGVEGPFQVNENWTFAETIKGY
As to B2, the binding result is “binds”.

B3: Flotillin 2 (Flo2), endogenous (protein, UniProt O61492 1-438)
chain: MGNIHTTGPNEALIVSGGCCGSTKKRTIVGGWAWAWWLVTDVQRLSLNVMTLNPMCENVETSQGVPLTVTGVAQCKIMKSSSYKQTDYHNDEADELLGTASEQFLGKSVKEIKQTILQTLEGHLRAILGTLTVEEVYKDRDQFAALVREVAAPDVGRMGIEILSFTIKDVYDDVQYLASLGKAQTAVVKRDADAGVAEANRDAGIREAECEKSAMDVKYSTDTKIEDNTRMYKLQKANFDQEINTAKAESQLAYELQAAKIRQRIRNEEIQIEVVERRKQIEIESQEVQRKDRELTGTVKLPAEAEAFRLQTLAQAKQCQTIEGARAEAERIRKIGSAEAHAIELVGKAEAERMRMKAHVYKQYGDAAIMNIVLESLPKIAAEVAAPLAKTDEIVLIGGNDNITNDVTRLVAQLPPSINALTGVDLSKVLSKIPGAKA
On to B3, for which the binding result is reported as “binds”.

B4: CSN7 (protein, UniProt Q9V4S8 1-278)
chain: MTQDMLLGNEEPSKSKETFLEKFCVLAKSSTGAALLDVIRQALEAPNVFVFGELLAEPSVLQLKDGPDSKHFETLNLFAYGTYKEYRAQPEKFIELTPAMQKKLQHLTIVSLAIKAKSIPYALLLSELEIDNVRHLEDIIIEAIYADIIHGKLFQNTRILEVDYAQGRDIPPGYTGQIVETLQAWVNSCDSVSNCIEMQIKYANAEKSKRLINKERVEQDLINLKKVLKSQTSDSDESMQIDTHGPGTSGGLGQSELRKKPSKLRNPRSAAVGLKFSK
Regarding B4, the binding entry is listed as “binds”.

B5: Falafel (protein, UniProt Q9VFS5 1-980)
chain: MTTDTRRRVKLYALNAERQWDDRGTGHVSSTYVERLKGISLLVRAESDGSLLLESKIQPDTAYQKQQDTLIVWSEGDNFDLALSFQEKAGCDEIWEKICQVQGKDPSVEITQDIVEESEDERFEDMSDTAPPIELPPCELSRLEDISETIQSCLSTPLRKEKLSMALESESYIKKLLNLFHVCEDLDNTEGLHHLFEIFKNIFLLNKNALFEIMFADDTIFDVVGCLEYDPSVSQPKKHRQYLKQLAKFREAVPIKNLDLLAKIHQTFRVQYIQDIILPTPSVFVEDNMLNTLSSFIFFNKVEIVTMIQDDERYLLDVFAVLTDPTTGDAKRRDTVLFLKEFCNYAQNLQPQGKDSFYKTLTCLGILQALELTLVMNDKKTKSASIDILTAIVEFSPLVVRNYTLNQANRPEVERMLLNIAIEQMLNDSEPELGIAVQLMGIVKILLEPENMLTEKGDFLNFFYKYSVQTLVAPVILNTIGDRPQNEDYQTAQLLGIVLDILSFCVEHHSYHIKNFLLQKDLLKRILVLMKSTHTFLVLGALRLLRKIIALKDEFYNRHIVKCNLFAPVVDAFIRNNGRYNLLESAILELFEFIKLEDIRTLCVYFVENFSKIFDEIEYVQTFKYLKNRYDQYQDRLKDRDKMENRTDGGLPIIRSGGRFRRDQRQMEEEEEMWFNEEDDFTEEIDTYNNVMKSVSEKNGPQTQNQQKSSPPHSTSPHSGLLGSLSTTASSTATSATSGAPVASGSSSPEAISADEQTQAAVHLAAAALQHHQQQQQQQQQNPFQQQTQPEIAELQQQLSSVEAPQSQELELSQSAAASASPTSSSSSLEASTSSSSASSSSSSSSSSSPPGSSAAASLCDSATVAAVAASQFLSTIATAMAASVTAAAATNSSPSISPAPAVSSPDIENADAQLPPSDDASSPASGEQDANSTEGTSSEADKTTAKKGLVDYESDSGEDDYEEDEYSEGPQAQKRARQA
For the molecule B5, the binding entry is given as “binds”.

B6: Toll-7, endogenous (receptor, UniProt Q7KIN0 17-1446)
chain: VESALAPKESESSASAMLGAGTGAAATVSLSGDYSSLLSNVPAASPVPANPSQPSGPANQCSWSYNGTSSVHCALRLIERQPGLDLQGADGSSQLTIQCSELYLFESTLPVAVFARLQTLEALRLDSCKLLQLPNNAFEGLATLKSLRLSTHNSEWGPTRTLELFPDSLGGLKQLTDLDLGDNNLRQLPSGFLCPVGNLQVLNLTRNRIRTAEQMGFADMNCGAGSGSAGSELQVLDASHNELRSISESWGISRLRRLQHLNLAYNNLSELSGEALAGLASLRIVNLSNNHLETLPEGLFAGSKELREIHLQQNELYELPKGLFHRLEQLLVVDLSGNQLTSNHVDNTTFAGLIRLIVLNLAHNALTRIDYRTFKELYFLQILNLRNNSIGHIEDNAFLPLYNLHTLNLAENRLHTLDDKLFNGLYVLSKLTLNNNLISVVEPAVFKNCSDLKELDLSSNQLNEVPRALQDLAMLRTLDLGENQIRTFDNQSFKNLHQLTGLRLIDNQIGNITVGMFQDLPRLSVLNLAKNRIQSIERGSFDKNFELEAIRLDRNFLADINGVFATLVSLLWLNLSENHLVWFDYAFIPSNLKWLDIHGNYIEALGNYYKLQEEIRVKTLDASHNRITEIGPMSIPNTIELLFINNNLIGNVQPNAFVDKANLARVDLYANQLSKLQLQQLRVAPVVAPKPLPEFYLGGNPFECDCTMDWLQRINNLTTRQHPRVMDMANIECVMPHARGAAVRPLSGLRPQDFLCRYESHCFALCHCCDFDACDCEMTCPSNCTCYHDQIWSTNVVDCGGQQTTELPRRVPMDSSVVYLDGNNFPVLKNHAFIGRKNLRALYVNGSQVAAIQNRTFASLASLQLLHLADNKLRTLHGYEFEQLSALRELYLQNNQLTTIENATLAPLAALELIRIDGNRLVTLPIWQMHATHFGTRLKSISLGRNQWSCRCQFLQALTSYVADNALIVQDAQDIYCMAASSGTGSAALEDSSSNSGSLEKRELDFNATGAACTDYYSGGSMLQHGIPESYIPLLAAALALLFLLVVIAMVFAFRESLRIWLFAHYGVRVFGPRCEESEKLYDAVLLHSAKDSEFVCQHLAAQLETGRPPLRVCLQHRDLAHDATHYQLLEATRVSRRVVILLTRNFLQTEWARCELRRSVHDALRGRPQKLVIIEEPEVAFEAESDIELLPYLKTSAVHRIRRSDRHFWEKLRYALPVDYPTFRGNNYTLELDHHNHERVKQPASPGLLYRQAPPPAYCGPADAVGIGAVPQVVPVNASVPAEQNYSTATTATPSPRPQRRGEQPGSGSGGNHHLHAQYYQHHGMRPPSEHIYSSIDSDYSTLDNEQHMLMMPGAPGGLAMEAAQRAQTWRPKREQLHLQQAQAGTLGSKASQAAHQQQQQQQQQQQQQPNPTAVSGQQQGPHVQAYLV
Consider B6, for which the binding result is “binds”.

B7: Cand1 (protein, UniProt Q9VKY2 1-1248)
chain: MASHQYHQIANLLEKMTSTDKDFRFMATNDLMTELQKDSIILDDESEKKVVRMVLKLLEDKNGEVQNLAVKCLGPLVNKVKEIQVETIVDSLCANMMSNTEQLRDISSIGLKTVIAELPQSSNSLAPNVCQRITGKLSTAIEKEDVSVKLESLDILADLLSRFGEFLVPFHSTILKALMPQLASSRQAVRKRTIVALSFLLIQANSNAYNGVIDHLLDGLENPPNPAAIRTYIQCLASICRQAGHRLCNHIDRSMLLLSQYSQRDDDELREFCLQACEAFVMRCPDAINPHIPMILELCLNYITYDPNYNYETDDGDTGNAMDTEDDEYVDSEEYSDDDDMSWKVRRAAAKCLEVLISTRQELVEDFYRSLSPALIARFKEREENVKSDIFHAYVALLKNTRLTDDVANDHDSMDQVSGPTSLLIEQLPLIVKAIQPLMREKSMKTRQDCFLLLRELLNSLPGALGPYLDSIVPGISYSLNDKSSTSNMKIESLGFLYSLLQGHPPHVFHPHIPLLVPLVVTSVFDPFYKIATEALLVLQQLVKVIRPLEPNAAKSDFDAPSFVGQVYSCTLQKLKVTDVDQEVKERAIACMGQIIANMGDMLQNELAVCLPIFMERLKNEVTRLSSVKALTLIAASSLRIDLTPILHDVLPALGTFLRKNHRALKLHSLDLINKIVINYSSNFEANLLQTAIVEIPPLISDSDLHVAQYSLTLLSTVARRQPQALVGIHEQFLRSVLILVRSPLLQGSALNCTLELFQALVQTQLSGLDYHSLVSKLMAPVLGGNGDVKSRATAGAPSEVVQLHKQAYHSSAKCIAALTQQCPQVATPLATKLITDLQKRNDTEIIFCLLTIGEIGRHFDLSSIQVLPQTIIECFGATSEDVKAAASHALGAVSVGSLQTYLPLILHEIEVQPKRQYLLLHSLKEVISSLSVSPSGLAQLLPSVPSIWDQLFKHCECSEEGSRNVVAECLGKLVLVNPDELLPQLQQALRSESATMRTVVVSSVKFTISDQPQPIDVLLKQNIGEFLFALRDPEPQVRRVALVAFNSAVHNKPSLVRDLLPTLLPWLYSETKVKSELIREVEMGPFKHTVDDGLDIRKAAFECMYTLLEQGLDRVDVMQFLDHVQAGLCDHYDIKMLTYLMTARLAILCPDKVLLRLDQFIQQLRDTCTHKVKANSVKQEYEKQDELKRSALRAVSALSQIPKANKNQQLVDFLKSIKETPELNKIFEYIQKDSITGSSDIIVMDQS
As for B7, the binding result is “binds”.

B8: UbcE2M (enzyme, UniProt Q9VSF3 1-181)
chain: MIKLFTLKQQKKDGEQKGSQQKKASAAQLRIQKDINELNLPNTCATDFPDPNDLLNFKLIISPDEGFYRDGRFVFNFRVGSNYPHEPPKVKCATQVYHPNIDLDGNVCLNILREDWNPVLNINSIVYGLQFLFLEPNPEDPLNKEAADVLQTNRRQFENNVKKAMRGGCVGETYFECCLLK
On to B8, for which the binding entry is listed as “binds”.

B9: Prosbeta5 (protein, UniProt Q7K148 1-282)
chain: MALAEICKISNAPYMRPNAWSSADVEEEQKGLMCNLANPYTLAAPPFENPLHNLNQIQANGDKTGVKINFDHGTTTLGFKFKGGVLLAVDSRATGGSYIGSQSMKKIVEINQFMLGTLAGGAADCVYWDRVLSKECRLHELRNKERISVAAASKIMANIAHEYKGMGLSMGMMLAGYDKRGPGLYYVDSEGSRTPGNLFSVGSGSLYAYGVLDSGYHWDLEDKEAQELGRRAIYHATFRDAYSGGIIRVYHIKEDGWVNISNTDCMELHYMYQEQLKQQAAK
Turning to B9, the binding entry is on record as “binds”.

B10: Prosbeta3 (protein, UniProt Q9XYN7 1-205)
chain: MSILAYNGGCVVAMRGKDCVAIATDHRFGIQAQTISTDFKKVFHIGPRMFLGLTGLQTDILTVRDRLMFRKNLYETRENREMCPKPFSAMMSSFLYEHRFGPYFIEPVVAGLDPKTMEPFICNMDLIGCPNAPDDFVVAGTCAEQLYGMCETLWKPDLEPDQLFEVIAQSIVNAFDRDAMSGWGATVYIIEKDKITERTLKTRMD
Turning to B10, the binding entry is “binds”.
